PubChem BioAssay AID504808 – Drosophila RNAi Screening Center, 2011
Screen: 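Genes whose loss lifts activity of an E2F-responsive reporter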 (primary screen). System: Drosophila S2 cells. Reagents: long dsRNA against Drosophila genes. Read-out: 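Dual luciferase plate measurements; E2F-specific signal taken as firefly over Renilla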. Reading the numbers: E2F firefly: higher = more E2F reporter activity; Renilla normaliser: higher = more normaliser reporter signal. Hit rule: 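a knock-down counted as active when the firefly/Renilla E2F signal rose above 50%, a threshold chosen arbitrarily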.
In all, the deposit lists about 21,000 reagents; below is a random part of those with a known target gene and a result. Of all reagents, 18 (0.084%) were called active. 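Raw counts without plate normalisation, one of two replicates; the ratio scores behind the calls were not deposited.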 Names joined by + are all predicted targets of the reagent. Not stated in the record: the amount of reagent, the time to read-out.

p23 [DRSC15158]
- E2F firefly, rep 1: 64143
- Renilla normaliser, rep 1: 3860
- Call: inactive

CG2614 [DRSC02711]
- E2F firefly, rep 1: 49869
- Renilla normaliser, rep 1: 2972
- Call: inactive

HmgZ [DRSC03888]
- E2F firefly, rep 1: 1.01e5
- Renilla normaliser, rep 1: 3785
- Call: inactive

HmgZ [DRSC04620]
- E2F firefly, rep 1: 1.01e5
- Renilla normaliser, rep 1: 4180
- Call: inactive

GstE9 [DRSC06679]
- E2F firefly, rep 1: 1.35e5
- Renilla normaliser, rep 1: 4903
- Call: inactive

spz [DRSC17065]
- E2F firefly, rep 1: 2065
- Renilla normaliser, rep 1: 984
- Call: inactive

CG15767 [DRSC18073]
- E2F firefly, rep 1: 89839
- Renilla normaliser, rep 1: 5264
- Call: inactive

CG8320 + ATPCL [DRSC07147]
- E2F firefly, rep 1: 1.41e5
- Renilla normaliser, rep 1: 4912
- Call: inactive

CG1307 [DRSC12492]
- E2F firefly, rep 1: 68345
- Renilla normaliser, rep 1: 3607
- Call: inactive

CG2336 [DRSC12581]
- E2F firefly, rep 1: 1.45e5
- Renilla normaliser, rep 1: 7261
- Call: inactive

CG17350 [DRSC02611]
- E2F firefly, rep 1: 97863
- Renilla normaliser, rep 1: 3967
- Call: inactive

sls [DRSC08528]
- E2F firefly, rep 1: 84099
- Renilla normaliser, rep 1: 4296
- Call: inactive

sls [DRSC08540]
- E2F firefly, rep 1: 1.05e5
- Renilla normaliser, rep 1: 4886
- Call: inactive

sls [DRSC08670]
- E2F firefly, rep 1: 99324
- Renilla normaliser, rep 1: 4289
- Call: inactive

A portion taken from the entries so far:
spz [DRSC17065]
- E2F firefly, rep 1: 2065
- Renilla normaliser, rep 1: 984
- Call: inactive

CG15767 [DRSC18073]
- E2F firefly, rep 1: 89839
- Renilla normaliser, rep 1: 5264
- Call: inactive
